Data taken from PMC5392987.
Results are given in words; binding and its absence hold for the method and conditions named. Binding seen in cells or lysates may run through a third protein. These calls come from enrichment with a bait or labelling near it, and not all partners need be listed.

Sequences of proteins named here, by UniProt entry; tags and fusion partners are left off. A change or cut given only in a name is not applied to a line headed by its entry.
UniProt Q9VNG2: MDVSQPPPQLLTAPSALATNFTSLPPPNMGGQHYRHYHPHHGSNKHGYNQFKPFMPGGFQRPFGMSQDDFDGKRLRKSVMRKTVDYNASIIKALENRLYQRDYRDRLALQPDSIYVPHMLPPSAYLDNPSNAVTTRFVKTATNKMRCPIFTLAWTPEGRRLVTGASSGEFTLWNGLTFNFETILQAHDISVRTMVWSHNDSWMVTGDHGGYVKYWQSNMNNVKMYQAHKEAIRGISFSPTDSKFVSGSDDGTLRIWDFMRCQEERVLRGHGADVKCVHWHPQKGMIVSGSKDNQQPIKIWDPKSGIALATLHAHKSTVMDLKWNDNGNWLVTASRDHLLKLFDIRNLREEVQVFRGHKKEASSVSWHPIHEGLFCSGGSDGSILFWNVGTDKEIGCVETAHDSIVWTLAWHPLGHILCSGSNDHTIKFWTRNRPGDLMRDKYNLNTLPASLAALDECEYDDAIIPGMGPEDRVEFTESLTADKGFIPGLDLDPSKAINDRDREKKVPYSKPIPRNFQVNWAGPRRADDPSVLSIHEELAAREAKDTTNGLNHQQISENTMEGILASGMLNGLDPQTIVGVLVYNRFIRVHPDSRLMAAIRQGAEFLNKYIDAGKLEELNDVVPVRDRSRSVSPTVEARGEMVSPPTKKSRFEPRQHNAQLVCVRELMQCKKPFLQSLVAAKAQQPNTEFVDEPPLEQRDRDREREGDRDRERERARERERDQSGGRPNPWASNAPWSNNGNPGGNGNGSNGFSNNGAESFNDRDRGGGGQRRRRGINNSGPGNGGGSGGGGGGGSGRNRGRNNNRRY

The substances below were run against T1, Symplekin (endogenous) (Drosophila melanogaster (endogenous in Dmel-2 cells)) (UniProt Q8MSU4) (assay: affinity purification with mass spectrometry; endogenous Symplekin immunoprecipitated from crude Drosophila culture cell nuclear extract; bands cut from a Coomassie-stained SDS-PAGE gel and identified by MS; anti-Myc as control).
T1 sequence: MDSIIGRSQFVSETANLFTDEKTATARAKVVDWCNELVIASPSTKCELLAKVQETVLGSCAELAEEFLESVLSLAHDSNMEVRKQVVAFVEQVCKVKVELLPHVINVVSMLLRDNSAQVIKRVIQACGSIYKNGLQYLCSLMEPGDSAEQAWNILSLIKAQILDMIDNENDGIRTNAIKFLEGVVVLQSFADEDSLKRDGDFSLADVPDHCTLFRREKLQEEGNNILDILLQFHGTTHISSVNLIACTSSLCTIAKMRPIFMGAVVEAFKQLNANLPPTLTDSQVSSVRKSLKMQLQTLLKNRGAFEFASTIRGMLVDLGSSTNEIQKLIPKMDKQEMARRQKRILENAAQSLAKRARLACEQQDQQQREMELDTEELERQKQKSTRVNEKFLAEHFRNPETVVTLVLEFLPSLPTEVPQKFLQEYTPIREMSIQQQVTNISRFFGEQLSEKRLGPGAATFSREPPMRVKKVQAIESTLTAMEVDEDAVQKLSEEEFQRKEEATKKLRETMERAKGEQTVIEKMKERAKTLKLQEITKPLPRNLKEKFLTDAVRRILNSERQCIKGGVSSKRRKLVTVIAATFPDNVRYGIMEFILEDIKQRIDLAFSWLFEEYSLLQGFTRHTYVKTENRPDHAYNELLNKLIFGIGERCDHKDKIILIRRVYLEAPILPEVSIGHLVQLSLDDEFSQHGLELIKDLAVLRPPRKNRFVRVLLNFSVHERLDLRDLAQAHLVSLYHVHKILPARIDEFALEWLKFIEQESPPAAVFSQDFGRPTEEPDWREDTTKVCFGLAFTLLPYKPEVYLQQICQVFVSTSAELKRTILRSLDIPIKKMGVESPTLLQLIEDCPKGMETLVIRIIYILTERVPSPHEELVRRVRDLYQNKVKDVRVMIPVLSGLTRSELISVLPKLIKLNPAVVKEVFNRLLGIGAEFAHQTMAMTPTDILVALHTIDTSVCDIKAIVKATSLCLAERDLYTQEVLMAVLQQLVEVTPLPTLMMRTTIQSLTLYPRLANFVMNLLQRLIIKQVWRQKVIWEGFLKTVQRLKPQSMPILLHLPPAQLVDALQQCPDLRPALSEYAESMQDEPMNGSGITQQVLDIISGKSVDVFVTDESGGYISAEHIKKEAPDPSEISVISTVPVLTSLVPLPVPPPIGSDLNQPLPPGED

binding, binds:
CstF77 (endogenous)
Hsc70 (endogenous)
WDR33 (CG1109) (endogenous) (from UniProt Q9VNG2)
